{
  "source": "the supplement of paper PMC8728848",
  "test_in_all_cases": "glycan array binding signal (z-score within array); higher = stronger binding",
  "conditions_in_all_cases": "glycan notation: IUPAC condensed, linker removed",
  "key": {"[1]": {"molecular_target": "Gal(b1-4)GlcNAc(b1-3)Gal(b1-4)GlcNAc(b1-3)Gal(b1-4)GlcNAc(b1-3)Gal(b1-4)GlcNAc(b1-2)Man(a1-3)[Gal(b1-4)GlcNAc(b1-3)Gal(b1-4)GlcNAc(b1-3)Gal(b1-4)GlcNAc(b1-3)Gal(b1-4)GlcNAc(b1-2)Man(a1-6)]Man(b1-4)GlcNAc(b1-4)[Fuc(a1-6)]GlcNAc", "outline": "(§1)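 Arrays were curated from the Consortium for Functional Glycomics database, 3228 in total, and kept only where the protein sequence was available. Binding is expressed as a within-array Z-score. This score was averaged across arrays of the same protein sequence at different concentrations or buffers and across linkers, and negative values can be read as non-binding.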"}, "[2]": {"molecular_target": "Gal(b1-4)GlcNAc(b1-3)Gal(b1-4)GlcNAc(b1-3)Gal(b1-4)GlcNAc(b1-3)Gal(b1-4)GlcNAc(b1-2)[Gal(b1-4)GlcNAc(b1-3)Gal(b1-4)GlcNAc(b1-3)Gal(b1-4)GlcNAc(b1-3)Gal(b1-4)GlcNAc(b1-6)]Man(a1-6)[Gal(b1-4)GlcNAc(b1-3)Gal(b1-4)GlcNAc(b1-3)Gal(b1-4)GlcNAc(b1-3)Gal(b1-4)GlcNAc(b1-2)Man(a1-3)]Man(b1-4)GlcNAc(b1-4)[Fuc(a1-6)]GlcNAc", "outline": "as §1"}, "[3]": {"molecular_target": "Gal(b1-4)GlcNAc(b1-3)Gal(b1-4)GlcNAc(b1-3)Gal(b1-4)GlcNAc(b1-3)Gal(b1-4)GlcNAc(b1-3)Gal(b1-4)GlcNAc(b1-2)Man(a1-3)[Gal(b1-4)GlcNAc(b1-3)Gal(b1-4)GlcNAc(b1-3)Gal(b1-4)GlcNAc(b1-3)Gal(b1-4)GlcNAc(b1-3)Gal(b1-4)GlcNAc(b1-2)Man(a1-6)]Man(b1-4)GlcNAc(b1-4)GlcNAc", "outline": "as §1"}, "[4]": {"molecular_target": "Gal(b1-4)GlcNAc(b1-3)Gal(b1-4)GlcNAc(b1-3)Gal(b1-4)GlcNAc(b1-3)Gal(b1-4)GlcNAc(b1-3)Gal(b1-4)GlcNAc(b1-2)Man(a1-3)[Gal(b1-4)GlcNAc(b1-3)Gal(b1-4)GlcNAc(b1-3)Gal(b1-4)GlcNAc(b1-3)Gal(b1-4)GlcNAc(b1-3)Gal(b1-4)GlcNAc(b1-2)Man(a1-6)]Man(b1-4)GlcNAc(b1-4)[Fuc(a1-6)]GlcNAc", "outline": "as §1"}, "[5]": {"molecular_target": "Gal(b1-4)GlcNAc(b1-3)Gal(b1-4)GlcNAc(b1-3)Gal(b1-4)GlcNAc(b1-3)Gal(b1-4)GlcNAc(b1-3)Gal(b1-4)GlcNAc(b1-2)[Gal(b1-4)GlcNAc(b1-3)Gal(b1-4)GlcNAc(b1-3)Gal(b1-4)GlcNAc(b1-3)Gal(b1-4)GlcNAc(b1-3)Gal(b1-4)GlcNAc(b1-6)]Man(a1-6)[Gal(b1-4)GlcNAc(b1-3)Gal(b1-4)GlcNAc(b1-3)Gal(b1-4)GlcNAc(b1-3)Gal(b1-4)GlcNAc(b1-3)Gal(b1-4)GlcNAc(b1-2)Man(a1-3)]Man(b1-4)GlcNAc(b1-4)[Fuc(a1-6)]GlcNAc", "outline": "as §1"}, "[6]": {"molecular_target": "Gal(b1-4)GlcNAc(b1-3)Gal(b1-4)GlcNAc(b1-3)Gal(b1-4)GlcNAc(b1-3)Gal(b1-4)GlcNAc(b1-3)Gal(b1-4)GlcNAc(b1-3)Gal(b1-4)GlcNAc(b1-2)Man(a1-3)[Gal(b1-4)GlcNAc(b1-3)Gal(b1-4)GlcNAc(b1-3)Gal(b1-4)GlcNAc(b1-3)Gal(b1-4)GlcNAc(b1-3)Gal(b1-4)GlcNAc(b1-3)Gal(b1-4)GlcNAc(b1-2)Man(a1-6)]Man(b1-4)GlcNAc(b1-4)GlcNAc", "outline": "as §1"}, "[7]": {"molecular_target": "Gal(b1-4)GlcNAc(b1-3)Gal(b1-4)GlcNAc(b1-3)GalNAc", "outline": "as §1"}, "[8]": {"molecular_target": "Gal(b1-4)GlcNAc(b1-3)Gal(b1-4)GlcNAc(b1-3)[Gal(b1-4)GlcNAc(b1-3)Gal(b1-4)GlcNAc(b1-6)]GalNAc", "outline": "as §1"}, "[9]": {"molecular_target": "Gal(b1-4)GlcNAc(b1-3)Gal(b1-4)GlcNAc(b1-6)[Gal(b1-3)]GalNAc", "outline": "as §1"}, "[10]": {"molecular_target": "Gal(b1-4)GlcNAc(b1-3)Gal(b1-4)[Fuc(a1-3)]GlcNAc(b1-3)Gal(b1-4)[Fuc(a1-3)]GlcNAc", "outline": "as §1"}, "[11]": {"molecular_target": "Gal(b1-4)GlcNAc(b1-3)GalNAc", "outline": "as §1"}, "[12]": {"molecular_target": "Gal(b1-4)GlcNAc(b1-3)[Fuc(a1-3)GlcNAc(b1-6)]Gal(b1-4)Glc", "outline": "as §1"}, "[13]": {"molecular_target": "Gal(b1-4)GlcNAc(b1-3)[Gal(b1-4)GlcNAc(b1-6)]Gal(b1-4)GlcNAc", "outline": "as §1"}, "[14]": {"molecular_target": "Gal(b1-4)GlcNAc(b1-3)[GlcNAc(b1-6)]Gal(b1-4)GlcNAc", "outline": "as §1"}, "[15]": {"molecular_target": "Gal(b1-4)GlcNAc(b1-6)Gal(b1-4)GlcNAc", "outline": "as §1"}, "[16]": {"molecular_target": "Gal(b1-4)GlcNAc(b1-6)GalNAc", "outline": "as §1"}, "[17]": {"molecular_target": "Gal(b1-4)GlcNAc(b1-6)[Gal(b1-3)]GalNAc", "outline": "as §1"}, "[18]": {"molecular_target": "Gal(b1-4)GlcNAc(b1-6)[Gal(b1-4)GlcNAc(b1-3)]GalNAc", "outline": "as §1"}, "Gal(b1-4)GlcNAc6P": {"molecular_target": "Gal(b1-4)GlcNAc6P", "outline": "as §1"}, "Gal(b1-6)Gal": {"molecular_target": "Gal(b1-6)Gal", "outline": "as §1"}, "Gal3S(b1-3)GalNAc": {"molecular_target": "Gal3S(b1-3)GalNAc", "outline": "as §1"}, "Gal3S(b1-3)GlcNAc": {"molecular_target": "Gal3S(b1-3)GlcNAc", "outline": "as §1"}, "[19]": {"molecular_target": "Gal3S(b1-3)[Fuc(a1-4)]GlcNAc", "outline": "as §1"}, "Gal3S(b1-4)Glc": {"molecular_target": "Gal3S(b1-4)Glc", "outline": "as §1"}, "Gal3S(b1-4)Glc6S": {"molecular_target": "Gal3S(b1-4)Glc6S", "outline": "as §1"}, "Gal3S(b1-4)GlcNAc": {"molecular_target": "Gal3S(b1-4)GlcNAc", "outline": "as §1"}, "[20]": {"molecular_target": "Gal3S(b1-4)[Fuc(a1-3)]Glc6S", "outline": "as §1"}, "[21]": {"molecular_target": "Gal3S(b1-4)[Fuc(a1-3)]GlcNAc", "outline": "as §1"}, "[22]": {"molecular_target": "Gal3S(b1-4)[Fuc(a1-3)]GlcNAc6S", "outline": "as §1"}, "Gal3S4S(b1-4)GlcNAc": {"molecular_target": "Gal3S4S(b1-4)GlcNAc", "outline": "as §1"}, "Gal3S6S(b1-4)GlcNAc": {"molecular_target": "Gal3S6S(b1-4)GlcNAc", "outline": "as §1"}, "Gal3S6S(b1-4)GlcNAc6S": {"molecular_target": "Gal3S6S(b1-4)GlcNAc6S", "outline": "as §1"}, "Gal4S(b1-4)GlcNAc": {"molecular_target": "Gal4S(b1-4)GlcNAc", "outline": "as §1"}, "Gal4S6S(b1-4)GlcNAc": {"molecular_target": "Gal4S6S(b1-4)GlcNAc", "outline": "as §1"}, "Gal6P(b1-4)GlcNAc": {"molecular_target": "Gal6P(b1-4)GlcNAc", "outline": "as §1"}, "Gal6S(b1-3)GlcNAc": {"molecular_target": "Gal6S(b1-3)GlcNAc", "outline": "as §1"}, "Gal6S(b1-3)GlcNAc6S": {"molecular_target": "Gal6S(b1-3)GlcNAc6S", "outline": "as §1"}, "Gal6S(b1-4)Glc": {"molecular_target": "Gal6S(b1-4)Glc", "outline": "as §1"}},
  "note": "This is one part of the list.",
  "data": [
    {"binder": "HopZSSI-T (Helicobacter pylori), B5Z6D0 (protein) MGSSHHHHHHSSGLVPRGSHMENLYFQGEDNGFFISAGYQIGEAAQMVKNTGELKKLSDTYENLSNLLTNFNNLNQAVTNASSPSEINAAIDNLKANTQGLTGEKTNSPAYQAVYLALNAAVGLWNVIAYNVQCGPGNSSQQSVTFEGQPGHNSSSINCNLTGYNNGVSGPLSIDNFKQLNQAYQVLQQALKQGVPVLNNTNQKIEVKVTTQTNGQSSKETTTTTTTNDAQTLLQEASKMIDVLTTNCPWVNHNPGQNGGAPWGLIRQECVSGFATEFSAVTSMIKNAQEIVTQAQSLNANQNNQNAPQDFNPYTSADRAFAQNMLNHAQAQAKILELADQMKKDLNTIPSQFITNYLAACRIDGTTPSQGVTNNTWGAGCAYVEETITALNNSLAHFGTQAEQIKQSELLARTILDFRGSLSTLNSTYNSITTTASNTPNSPFLKNLISQSTNPNNPGGLQAVYQVNQSAYSQLLSATQELGHNPFRRIGLISSQT", "values": [
      {"measurement": "glycan array binding signal (z-score)", "setting": "[1]", "result": 1.74},
      {"measurement": "glycan array binding signal (z-score)", "setting": "[2]", "result": 0.699},
      {"measurement": "glycan array binding signal (z-score)", "setting": "[3]", "result": 2.12},
      {"measurement": "glycan array binding signal (z-score)", "setting": "[4]", "result": 1.86},
      {"measurement": "glycan array binding signal (z-score)", "setting": "[5]", "result": 0.695},
      {"measurement": "glycan array binding signal (z-score)", "setting": "[6]", "result": 0.41},
      {"measurement": "glycan array binding signal (z-score)", "setting": "[7]", "result": 0.115},
      {"measurement": "glycan array binding signal (z-score)", "setting": "[8]", "result": 0.016},
      {"measurement": "glycan array binding signal (z-score)", "setting": "[9]", "result": 0.858},
      {"measurement": "glycan array binding signal (z-score)", "setting": "[10]", "result": -0.202},
      {"measurement": "glycan array binding signal (z-score)", "setting": "[11]", "result": -0.841},
      {"measurement": "glycan array binding signal (z-score)", "setting": "[12]", "result": -0.481},
      {"measurement": "glycan array binding signal (z-score)", "setting": "[13]", "result": -0.007},
      {"measurement": "glycan array binding signal (z-score)", "setting": "[14]", "result": 0.102},
      {"measurement": "glycan array binding signal (z-score)", "setting": "[15]", "result": -0.411},
      {"measurement": "glycan array binding signal (z-score)", "setting": "[16]", "result": 1.25},
      {"measurement": "glycan array binding signal (z-score)", "setting": "[17]", "result": -0.512},
      {"measurement": "glycan array binding signal (z-score)", "setting": "[18]", "result": -0.032},
      {"measurement": "glycan array binding signal (z-score)", "setting": "Gal(b1-4)GlcNAc6P", "result": 0.335},
      {"measurement": "glycan array binding signal (z-score)", "setting": "Gal(b1-6)Gal", "result": -0.78},
      {"measurement": "glycan array binding signal (z-score)", "setting": "Gal3S(b1-3)GalNAc", "result": 0.474},
      {"measurement": "glycan array binding signal (z-score)", "setting": "Gal3S(b1-3)GlcNAc", "result": -0.166},
      {"measurement": "glycan array binding signal (z-score)", "setting": "[19]", "result": -0.455},
      {"measurement": "glycan array binding signal (z-score)", "setting": "Gal3S(b1-4)Glc", "result": -0.329},
      {"measurement": "glycan array binding signal (z-score)", "setting": "Gal3S(b1-4)Glc6S", "result": 0.411},
      {"measurement": "glycan array binding signal (z-score)", "setting": "Gal3S(b1-4)GlcNAc", "result": 0.105},
      {"measurement": "glycan array binding signal (z-score)", "setting": "[20]", "result": 0.347},
      {"measurement": "glycan array binding signal (z-score)", "setting": "[21]", "result": 0.637},
      {"measurement": "glycan array binding signal (z-score)", "setting": "[22]", "result": -0.409},
      {"measurement": "glycan array binding signal (z-score)", "setting": "Gal3S4S(b1-4)GlcNAc", "result": -0.342},
      {"measurement": "glycan array binding signal (z-score)", "setting": "Gal3S6S(b1-4)GlcNAc", "result": 0.269},
      {"measurement": "glycan array binding signal (z-score)", "setting": "Gal3S6S(b1-4)GlcNAc6S", "result": 0.286},
      {"measurement": "glycan array binding signal (z-score)", "setting": "Gal4S(b1-4)GlcNAc", "result": -0.151},
      {"measurement": "glycan array binding signal (z-score)", "setting": "Gal4S6S(b1-4)GlcNAc", "result": -0.807},
      {"measurement": "glycan array binding signal (z-score)", "setting": "Gal6P(b1-4)GlcNAc", "result": 0.331},
      {"measurement": "glycan array binding signal (z-score)", "setting": "Gal6S(b1-3)GlcNAc", "result": -0.358},
      {"measurement": "glycan array binding signal (z-score)", "setting": "Gal6S(b1-3)GlcNAc6S", "result": -0.343},
      {"measurement": "glycan array binding signal (z-score)", "setting": "Gal6S(b1-4)Glc", "result": 0.116}
    ]}
  ]
}
